From PubChem BioAssay (NCATS)
Some of the results follow. Further columns of the screen follow, without active or inactive calls. Compounds called inactive in the main read-out are mostly missing here. For part of these data: The note in brackets gives the kind of curve behind each potency; many fits are weak.

Experiments:
[1] = Validation of Assay for Modulators of Lamin A Splicing (AID 1459); settings: Lamin A splicing dual RFP/GFP fluorescence reporter, ratio
Procedure, shortened: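 HeLa S3 lamin A-EGFP/DsRed2 stable clone, 600 cells/well, Opti-MEM 2% FBS; compounds by pin tool; 48 hrs, 37 °C/5% CO2; Acumen 488 nm scan, objects 10-100 um; GFP/RFP intensity ratio.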

[2] = qHTS Assay for Lipid Storage Modulators (AID 1519); settings: Drosophila S3 cells, BODIPY lipid droplet/cell ratio, laser cytometry, cells loaded with oleic acid
Procedure, shortened: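 Cells seeded at 5,000 per well were treated with compounds over a concentration series and loaded with oleic acid (400 uM, as added). Lipid droplet fluorescence (488 nm excitation, 500-530 nm channel) was read by laser-scanning cytometry and normalized to 20 uM Triacsin C.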

[3] = qHTS Assay for Modulators of Human Peripheral Myelin Protein 22 (PMP22) Expression/Activity (AID 1967); settings: Cell-based PMP22 reporter, dual-color luciferase ratio
Procedure, shortened: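 Luminescence ratio of Pmp22 promoter-driven green luciferase to EF-alpha-driven red luciferase, in engineered mouse MSC80 Schwann cells, served as read-out. Compounds were incubated 24h; untreated cells defined 0% Activity; curves were classified by r2, magnitude and activity.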

[4] = qHTS Validation Assay to Find Inhibitors of Chronic Active B-Cell Receptor Signaling (AID 485345); settings: ABC-DLBCL cells, chronic BCR signaling reporter
Procedure, shortened: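 TMD8 ABC-DLBCL cells with dox-inducible green luciferase–IκBα fusion and red native luciferase; compounds 46 uM–3 nM, 4 h at 37C with doxycycline in 0.5% FBS IMDM. Green/red ratio normalized to basal and 10 uM MG-132.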

[5] = Nrf2 qHTS screen for inhibitors: Validation (AID 493153); settings: A549 ARE-Fluc reporter, 18-24 h; AC50: CellTiter-Fluor fluorescence read, measured here: cytotoxicity CellTiter-Fluor AC50; viability change: measured here: cytotoxicity max response
Procedure, shortened: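 Concentration-response on A549 ARE_Fluc reporter cells exposed 18-24 h at 37 C, 5% CO2. Cytotoxicity read first by CellTiter-Fluor fluorescence (Ex 405/Em 525), then Nrf2 inhibition by BugLite luminescence after 15 min.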

[6] = S16 Schwann cell PMP22 intronic element beta-lactamase assay (AID 624044); settings: S16 rat Schwann cells, PMP22 element beta-lactamase FRET, 24 h
Procedure, shortened: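 Beta-lactamase reporter under a PMP22 intronic regulatory element in stable S16 rat Schwann cells; 24 h compound exposure. 460 nm blue signal normalized between DMSO (0%) and potassium clavulanate, with 535 nm FRET tracking viability; curves classed by r2 and response.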

[7] = measured here: cell count channel max response
[8] = measured here: lipid channel max response
[9] = measured here: green reporter channel AC50, mouse Pmp22 promoter in mouse Schwann cells
[10] = measured here: red reporter channel AC50, EF-alpha promoter control reporter in MSC80 mouse Schwann cells

Compound	AC50 ([1]; measured here: GFP channel)	AC50 ([1]; measured here: RFP channel)	max response [2, 7] [%]	max response [2, 8] [%]	AC50 [3, 9]	AC50 [3, 10]	AC50 ([4]; measured here: CBG/CBR ratio read-out)	AC50 ([4]; measured here: CBR control luciferase (viability counter))	AC50 [5]	viability change [5] [%]	AC50 ([6]; measured here: 460 nm blue channel)	AC50 ([6]; measured here: 530 nm viability channel)
Cc1cc(N)c2ccccc2[n+]1CCCCCCCCCCCCCC[n+]1c(C)cc(N)c2ccccc21	12.6 µM [falling, partial curve]	12.6 µM [falling, partial curve]	-81.3	-109	3.38 µM [falling, full curve]	1.9 µM [falling, full curve]						
C#C[C@]1(O)CC[C@H]2C3CCC4=Cc5oncc5CC4(C)C3CCC21C (some centres not stated)	0.562 µM [rising, full curve]	0.562 µM [rising, full curve]	42.9	46.2	60.1 µM [falling, partial curve]	42.6 µM [falling, partial curve]						
O=C1NCN(c2ccccc2)C12CCN(CCCC(c1ccc(F)cc1)c1ccc(F)cc1)CC2	15.8 µM [falling, partial curve]	12.6 µM [falling, partial curve]	-90.3	-105	33.8 µM [falling, full curve]	21.3 µM [falling, full curve]	18.4 µM [falling, single point]	16.4 µM [falling, single point]	11.6 µM [falling, partial curve, poor fit]	-24.3	22.4 µM [falling, partial curve]	31.6 µM [falling, single point]
CC(C)(C)c1ccc(C(O)CCCN2CCC(C(O)(c3ccccc3)c3ccccc3)CC2)cc1 (configuration not stated)	25.1 µM [falling, single point]	15.8 µM [falling, single point]				84.9 µM [falling, single point]						
